In doi:10.1101/2023.06.21.546019 one finds binding data, which are given here for one substance.

The chains behind the UniProt entries cited, without tags or fusion partners.
UniProt P11499: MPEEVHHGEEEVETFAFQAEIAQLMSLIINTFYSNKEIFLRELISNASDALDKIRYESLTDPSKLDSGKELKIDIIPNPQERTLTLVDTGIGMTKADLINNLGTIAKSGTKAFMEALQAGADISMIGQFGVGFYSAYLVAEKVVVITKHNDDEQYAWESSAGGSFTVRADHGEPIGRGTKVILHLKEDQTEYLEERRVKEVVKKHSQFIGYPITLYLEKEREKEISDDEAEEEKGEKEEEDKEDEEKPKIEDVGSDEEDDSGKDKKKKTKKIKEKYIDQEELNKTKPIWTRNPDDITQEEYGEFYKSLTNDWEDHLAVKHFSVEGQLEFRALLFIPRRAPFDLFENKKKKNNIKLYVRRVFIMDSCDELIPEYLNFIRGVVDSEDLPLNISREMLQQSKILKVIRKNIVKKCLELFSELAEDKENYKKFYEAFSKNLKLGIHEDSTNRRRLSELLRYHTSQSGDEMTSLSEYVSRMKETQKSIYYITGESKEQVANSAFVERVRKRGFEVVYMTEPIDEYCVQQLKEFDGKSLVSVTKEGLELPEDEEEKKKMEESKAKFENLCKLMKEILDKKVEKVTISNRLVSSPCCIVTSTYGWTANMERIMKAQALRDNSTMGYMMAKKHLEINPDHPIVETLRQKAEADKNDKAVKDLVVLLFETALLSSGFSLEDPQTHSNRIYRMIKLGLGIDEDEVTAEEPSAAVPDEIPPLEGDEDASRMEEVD
UniProt P42227: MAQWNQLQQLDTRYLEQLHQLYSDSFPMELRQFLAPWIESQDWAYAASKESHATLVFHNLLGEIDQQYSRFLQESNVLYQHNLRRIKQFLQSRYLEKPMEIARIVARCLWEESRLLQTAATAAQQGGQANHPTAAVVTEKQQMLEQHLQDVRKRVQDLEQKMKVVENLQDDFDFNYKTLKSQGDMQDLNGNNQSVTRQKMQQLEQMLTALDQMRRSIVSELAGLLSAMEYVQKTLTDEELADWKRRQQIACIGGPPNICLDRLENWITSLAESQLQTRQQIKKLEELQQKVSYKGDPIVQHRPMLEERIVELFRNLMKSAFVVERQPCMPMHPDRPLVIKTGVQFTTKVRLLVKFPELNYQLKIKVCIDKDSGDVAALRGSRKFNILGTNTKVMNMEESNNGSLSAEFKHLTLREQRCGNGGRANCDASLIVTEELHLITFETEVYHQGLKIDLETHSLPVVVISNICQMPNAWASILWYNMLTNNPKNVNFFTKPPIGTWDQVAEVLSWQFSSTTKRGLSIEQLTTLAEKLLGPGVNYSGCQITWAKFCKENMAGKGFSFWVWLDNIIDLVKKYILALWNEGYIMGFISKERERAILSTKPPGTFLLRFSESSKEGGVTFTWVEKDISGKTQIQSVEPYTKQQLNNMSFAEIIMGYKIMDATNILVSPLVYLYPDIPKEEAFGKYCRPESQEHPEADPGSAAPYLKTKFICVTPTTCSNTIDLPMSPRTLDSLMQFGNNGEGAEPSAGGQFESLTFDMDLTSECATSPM

The target of this experiment is HSP90ab1 (heat shock protein 90 alpha, class B, member 1) (mouse (endogenous in primary cardiomyocytes)) (UniProt P11499). The experiment is described as follows: co-IP.

Results are given in words; binding and its absence hold for the method and conditions named. Binding seen in cells or lysates may run through a third protein. Some binding calls cover weakened binding; strength is not graded here.

Consider “p-STAT3 (phosphorylated signal transducer and activator of transcription 3) (from UniProt P42227 1-770)”, for which the binding result was “binds”.
